This note sets out measurements from paper PMC5320473.

Chains of the proteins cited; added tags and fusions are not shown.
UniProt Q61221: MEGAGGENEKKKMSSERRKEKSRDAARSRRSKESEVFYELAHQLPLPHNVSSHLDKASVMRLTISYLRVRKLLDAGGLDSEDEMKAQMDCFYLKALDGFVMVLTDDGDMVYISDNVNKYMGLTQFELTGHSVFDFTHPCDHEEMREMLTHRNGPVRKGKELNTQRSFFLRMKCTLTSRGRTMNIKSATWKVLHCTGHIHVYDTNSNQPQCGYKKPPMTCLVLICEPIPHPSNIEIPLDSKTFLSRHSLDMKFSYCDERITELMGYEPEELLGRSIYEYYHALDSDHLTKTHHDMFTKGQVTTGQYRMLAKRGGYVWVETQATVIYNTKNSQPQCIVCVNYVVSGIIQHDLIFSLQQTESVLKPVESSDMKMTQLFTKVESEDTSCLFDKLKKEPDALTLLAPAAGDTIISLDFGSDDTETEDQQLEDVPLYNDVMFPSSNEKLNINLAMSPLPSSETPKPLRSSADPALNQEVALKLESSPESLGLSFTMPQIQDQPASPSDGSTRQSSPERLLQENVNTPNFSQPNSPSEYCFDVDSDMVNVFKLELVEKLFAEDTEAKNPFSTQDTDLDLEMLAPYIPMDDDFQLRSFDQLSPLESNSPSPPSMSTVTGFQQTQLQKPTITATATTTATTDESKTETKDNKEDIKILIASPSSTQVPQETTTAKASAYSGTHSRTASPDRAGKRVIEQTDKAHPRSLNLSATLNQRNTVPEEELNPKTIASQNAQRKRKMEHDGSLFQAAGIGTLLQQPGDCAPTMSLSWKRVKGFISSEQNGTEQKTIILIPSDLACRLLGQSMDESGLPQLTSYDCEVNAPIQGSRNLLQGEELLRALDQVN
UniProt P53762: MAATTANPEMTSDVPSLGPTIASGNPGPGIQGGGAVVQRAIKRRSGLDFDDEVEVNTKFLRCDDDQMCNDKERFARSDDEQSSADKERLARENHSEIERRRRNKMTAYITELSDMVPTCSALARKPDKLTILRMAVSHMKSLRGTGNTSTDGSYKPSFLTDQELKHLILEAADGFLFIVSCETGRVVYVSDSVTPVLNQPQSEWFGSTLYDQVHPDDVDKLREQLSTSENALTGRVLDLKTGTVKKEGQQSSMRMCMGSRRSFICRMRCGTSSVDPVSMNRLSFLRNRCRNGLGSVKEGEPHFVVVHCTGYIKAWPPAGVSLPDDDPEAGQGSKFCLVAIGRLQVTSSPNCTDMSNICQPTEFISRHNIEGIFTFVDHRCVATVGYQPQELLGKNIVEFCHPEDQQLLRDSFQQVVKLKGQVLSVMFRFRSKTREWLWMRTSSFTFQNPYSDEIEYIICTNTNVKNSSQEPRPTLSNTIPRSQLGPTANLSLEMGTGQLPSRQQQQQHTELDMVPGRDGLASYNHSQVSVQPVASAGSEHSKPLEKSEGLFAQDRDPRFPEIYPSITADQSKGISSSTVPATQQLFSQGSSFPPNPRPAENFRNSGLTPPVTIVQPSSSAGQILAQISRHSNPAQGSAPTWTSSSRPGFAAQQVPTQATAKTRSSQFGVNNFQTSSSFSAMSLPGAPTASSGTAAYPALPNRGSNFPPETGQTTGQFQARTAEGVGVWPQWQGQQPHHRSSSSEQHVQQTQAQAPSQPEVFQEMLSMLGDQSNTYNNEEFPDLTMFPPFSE

These are yes or no findings as the source states them, for the method shown. In cells and extracts the contact can be indirect. Some entries that bind do so weakly or less than the wild type.

The experiment concerns the target hypoxia inducible factor 1α (HIF-1α) (mouse (endogenous in MC3T3-E1)) (UniProt Q61221). Description: co-IP; hypoxic (1% O2) MC3T3-E1 cells treated 16 h with indicated concentrations of osmium complex 1 or chetomin; 30 μg lysate protein incubated 12 h with anti-HIF-1α magnetic beads; Western blot with anti-p300, anti-HIF-1α, anti-HIF-1β.

For the substance HIF-1β (from UniProt P53762 1-791), the binding entry is on record as “binds”.
